Data taken from paper doi:10.1101/2020.07.20.211441.
These are yes or no findings as the source states them, for the method shown. Binding seen in cells or lysates may run through a third protein. These calls come from enrichment with a bait or labelling near it, and not all partners need be listed. Where a sequence is shown, tags or fusion partners need not be part of it.

T1: XPA-binding protein (XAB)-2, biotin-tagged knock-in (mouse) (UniProt Q9DCD2)
T1 sequence (chain, biotin on the Avitag (by the BirA ligase in vivo)): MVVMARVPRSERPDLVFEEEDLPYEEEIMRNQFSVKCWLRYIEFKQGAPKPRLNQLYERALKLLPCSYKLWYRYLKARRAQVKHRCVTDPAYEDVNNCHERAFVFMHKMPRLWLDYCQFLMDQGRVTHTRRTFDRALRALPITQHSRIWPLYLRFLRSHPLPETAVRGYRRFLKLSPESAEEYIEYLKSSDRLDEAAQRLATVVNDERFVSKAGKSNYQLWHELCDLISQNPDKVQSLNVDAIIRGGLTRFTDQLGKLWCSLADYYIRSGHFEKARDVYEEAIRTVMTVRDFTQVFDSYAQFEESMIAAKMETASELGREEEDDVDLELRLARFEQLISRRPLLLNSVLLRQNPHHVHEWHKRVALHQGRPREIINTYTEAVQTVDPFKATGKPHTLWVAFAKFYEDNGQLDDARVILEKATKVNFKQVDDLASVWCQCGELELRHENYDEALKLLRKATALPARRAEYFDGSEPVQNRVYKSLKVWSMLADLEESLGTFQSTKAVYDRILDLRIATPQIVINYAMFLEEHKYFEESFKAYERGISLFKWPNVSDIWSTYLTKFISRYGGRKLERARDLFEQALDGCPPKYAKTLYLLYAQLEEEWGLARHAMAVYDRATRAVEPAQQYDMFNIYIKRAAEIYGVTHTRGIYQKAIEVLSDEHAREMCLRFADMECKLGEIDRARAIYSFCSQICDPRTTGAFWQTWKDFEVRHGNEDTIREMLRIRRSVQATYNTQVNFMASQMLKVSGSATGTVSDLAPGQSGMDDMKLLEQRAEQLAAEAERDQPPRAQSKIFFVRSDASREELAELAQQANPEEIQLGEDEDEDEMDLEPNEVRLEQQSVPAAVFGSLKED

B1: NOP58 (protein, UniProt Q6DFW4 1-536)
chain: MLVLFETSVGYAIFKVLNEKKLQEVDSLWKEFETPEKANKIVKLKHFEKFQDTAEALAAFTALMEGKINKQLKKVLKKIVKEAHEPLAVADAKLGGVIKEKLNLSCIHSPVVNELMRGIRSQMDGLIPGVEPREMAAMCLGLAHSLSRYRLKFSADKVDTMIVQAISLLDDLDKELNNYIMRCREWYGWHFPELGKIISDNLTYCKCLQKVGDRKNYASASLSEFLSEEVEAEVKAAAEISMGTEVSEEDICNILHLCTQVIEISEYRTQLYEYLQNRMMAIAPNVTVMVGELVGARLIAHAGSLLNLAKHAASTVQILGAEKALFRALKSRRDTPKYGLIYHASLVGQSSPKHKGKISRMLAAKTVLAIRYDAFGEDSSSAMGIENRAKLEARLRILEDRGIRKISGTGKALAKAEKYEHKSEVKTYDPSGDSTLPTCSKKRKIEEVDKEDEITEKKAKKAKIKIKAEVEEEMEEEEAEEEQVVEEEPTVKKKKKKDKKKHIKEEPLSEEEPCTSTAVPSPEKKKKKKKKKDAED
B2: UTP15 (protein, UniProt Q8C7V3 1-528)
chain: MAGYKPVAIQTYPVLGEKITQDTLYWNNYKTPVQIKEFGAVSKVDFSPQLPYNYAVTASSRIHIYGRYSQEPVKTFSRFKDTAYCATFRQDGQLLVAGSEDGVVQLFDINGRAPLRQFEGHTKAVHTVDFTADNYHVVSGADDYTVKLWDIPNSKEILTFKEHSDYVRCGCASKLNPDLFVTGSYDHTVKIFDARTNKNVLCVEHGQPVESVLLFPSGGLLVSAGGRYVKVWDMLKGGQLLVSLKNHHKTVTCLCLSSSGQRLLSGSLDRKVKVYSTTSYKVVHSFDYAASILSLALSHQDETIVVGMTNGILSVKHRKSEAKKTSLPRRRRPAYRTFIKGKNYLKQRDDIMVSRPAKKHLEGYDKDLKSFRVSQALDRVLEPKCVIRTPEVTVSIIKELTRRGVLANALAGRDEKEVTRVLNFLIRNLSQPRFAPVLINAAEIIIDIYLPVIGQSSVVDKKFIVLQELVEKEIDYQRELLETLGMMDMLFATMTRNDSDPVPEHVPAELPEEKTESPTQPSDTDKNS
B3: WDR43 (protein, UniProt Q6ZQL4 1-677)
chain: MAAGGGGSYDPLAPAGVPCAFSPDSQAYFALASSDGQLRVWETANNRLHQEYVPSAHLSGTCTCLAWAPARLQAKESHQRKKRKSEVTGTKDQADLLALGTAVGSILLYSTVRGELHSKLTSGGHENRVNCIQWHQDNDCLYSCSDDKYIVEWSTQTCKVKCKWKGDNSSVSSLCISPDGKMLLSAGRTIKLWVLETKEVYRHFTGHATPVSSLRFTTIRPNESQPSDGITGLYFLSGAVHDRLLNVWQVRSENKEKSAVMSFTVTDEPVYVDLTLSENKEEPVKLAVVCRDGQVHLFEHILNGHCKKPLTSNCTIQIATPGKGKKVTPKPIPILAASFCLDKMSLLLVYGNWFQPTIERVALNSKDTHICLERDISNCWAPTVETAITKVKTPVMNSEAKVLVPGIPGHHAPIKLPPAQPKEAENKRKLGSTEATIEERLGAMDLDRKGRKDDLQTNSFAVLLTQGLESNDFEILNKVLQTKNVNLIKRTVLRIPLRVVIPLLQELTKRLQGHPNSAALMIQWLKCVLTIHASYLSTLPDLVEQLGTLYQLMESRVKTFQKLSNLHGKLILLVTQVTASEKSKKMTSPGQKAKLVYEEESSEEESDDEVPEKDSDDNWDEDEDKDSEKDEGVDEDNEEEDEDMEDKEENEEDREVSSEKELNGDSDLDPENESEEE
B4: WDR75 (protein, UniProt Q3U821 1-830)
chain: MVEEGVRVVRCGGSRLNFRRAVFSVDSKYIFCVSGDFVKVYSTTTEECVHILHGHTDLVSGILVNPSNHLQLYSCSFDGTIKLWDYVDGILIKTFTIGPKLHAFFIPLHAEDSVFLTISKEEPDIFQLVSVKLPKSTSQDVEARQLTFVLDYINRSPKCIAFGNEGEYVAAVRDFYLSVYFFKKKKTCNFTLPSTKNKKNAKNKFTCVACHPKEDCIASGHMDGKIRLWRNFHSDQKYTYTCLHWHHDMVMDLAFTVTGTSLLSGGRECVLVEWRDGSEKNKEFLPRLGSSIEHISVSPAGDLFCTSHSDNKITVIHRNLDASAVIQGLVKDRSISTGLMVDPRTKALVLNGKPGHLQFYSLQGDKQLYNLDIIQQEYINDEGLTQTELTKAAFGCSGTWLATVEQRQENENELELQMKLWNYSKKTQGFVLNTKIAMPHDDHITALCFNNAESYEKPILVTASRDGHFKVWILTDDSDIYKKAIAWTCDFVGSYHKYQATNCCFSEDGSLLAVSFEEIVTIWDSQTWELKCTFCQRAGKIRHLCFGRLTCSKYLLGTTDNGILCCWNLLSCSIQWSAKLNVRVMEPDPYSDHVAAVAQSSAGSDLFVFKPSEPRPLYIQKNVSREEVQWGVFVPRDVPESFTSETHQWLNRSQFYFLTKSQSLLTFSTKSPEEKLTPTSKQLLAEESLPTTPFSFILGKHRQQQGAKLTETSENELVQLPLTENIPAITELLHTPAHVLPSASFLCSLFVNSLLLSKETKSAEEVPDDVDMEGNKESDDSDEEYDLTEKDKETNNNTDLGEDAIHQLSKSEEKELRKFRKVDYSWLTAL
B5: XRN2 (protein, UniProt Q9DBR1 1-951)
chain: MGVPAFFRWLSRKYPSIIVNCVEEKPKECNGVKIPVDASKPNPNDVEFDNLYLDMNGIIHPCTHPEDKPAPKNEDEMMVAIFEYIDRLFNIVRPRRLLYMAIDGVAPRAKMNQQRSRRFRASKEGMEAAVEKQRVREEILAKGGFLPPEEIKERFDSNCITPGTEFMDNLAKCLRYYIADRLNNDPGWKNLTVILSDASAPGEGEHKIMDYIRRQRAQPNHDPNTHHCLCGADADLIMLGLATHEPNFTIIREEFKPNKPKPCALCNQFGHEVKDCEGLPREKKGKHDELADSLPCAEGEFIFLRLNVLREYLERELTMASLPFPFDVERSIDDWVFMCFFVGNDFLPHLPSLEIREGAIDRLVNIYKNVVHKTGGYLTESGYVNLQRVQMIMLAVGEVEDSIFKKRKDDEDSFRRRQKEKRKRMKRDQPAFTPSGILTPHALGSRNSPGCQVASNPRQAAYEMRMQRNSSPSISPNTSFASDGSPSPLGGIKRKAEDSDSEPEPEDNVRLWEAGWKQRYYKNKFDVDAADEKFRRKVVQSYVEGLCWVLRYYYQGCASWKWYYPFHYAPFASDFEGIADMSSEFEKGTKPFKPLEQLMGVFPAASGNFLPPTWRKLMSDPDSSIIDFYPEDFAIDLNGKKYAWQGVALLPFVDERRLRAALEEVYPDLTPEENRRNSLGGDVLFVGKLHPLRDFILELYQTGSTEPVDVPPELCHGIQGTFSLDEEAILPDQTVCSPVPMLRDLTQNTAVSINFKDPQFAEDYVFKAAMLPGARKPATVLKPGDWEKSSNGRQWKPQLGFNRDRRPVHLDQAAFRTLGHVTPRGSGTSVYTNTALPPANYQGNNYRPLLRGQAQIPKLMSNMRPQDSWRGPPPLFQQHRFERSVGAEPLLPWNRMIQNQNAAFQPNQYQMLGGPGGYPPRRDDHRGGRQGYPREGRKYPLPPPSGRYSWN
B6: Aquarius (protein, UniProt Q8CFQ3 1-1481)
chain: MAAPAQPKKIVAPTVSQINAEFVTQLACKYWAPHIKKKSPFDIKVIEEIYEKEIVKSRFAIRKIMLLEFSQYLENYLWMNYSPEVSSKAYLMSICCMVNEKFRENVPAWETFKKKPDHFPFFFKCILKAALAETDGEFSLHEQTLLLLFLDHCFNSLEVDLIRSQVQQLISLPMWMGLQPARLELELKKTPKLRKFWNLIKKNDEKMDPEAREQAYQERRFLSRLIQKFISVLKSIPLSEPVTMDKVHYCERFIELMIDLEALLPTRRWFNTILDDSHLLVHCYLSSLVHREEDGHLFSQLLDMLKFYTGFEINDQTGNALTENEMTTIHYDRITSLQRAAFAHFPELYDFALSNVAEVDARDSLVKFFGPLSSNTLHQVASYLCLLPTLPKNEDTTFDKEFLLELLVSRHERRISQIQQLNQMPLYPTEKIIWDENIVPTEYYSGEGCLALPKLNLQFLTLHDYLLRNFNLFRLESTYEIRQDIEDSVSRMKPWQSEYGGVVFGGWARMAQPIVAFTVVEVAKPNIGENWPTRVRADVTINLNVRDHIKDEWEGLRKHDVCFLITVRPTKPYGTKFDRRRPFIEQVGLVYVRGCEIQGMLDDKGRVIEDGPEPRPNLRGESRTFRVFLDPNQYQQDMTNTIQNGAEDVYDTFNVIMRRKPKENNFKAVLETIRNLMNTDCVVPDWLHDIILGYGDPSSAHYSKMPNQIATLDFNDTFLSIEHLKASFPGHNVKVTVSDPALQIPPFRITFPVRSGKGKKRKDADGEEDDTEEAKTLIVEPHVIPNRGPYPYNQPKRNTIQFTHTQIEAIRAGMQPGLTMVVGPPGTGKTDVAVQIISNIYHNFPEQRTLIVTHSNQALNQLFEKIMALDIDERHLLRLGHGEEELETEKDFSRYGRVNYVLARRIELLEEVKRLQKSLGVPGDASYTCETAGYFFLYQVMSRWEEYMSRVKNSGTACPDAAPDAAQVATFFPFHEYFANAPQPIFKGRSYEEDMEIAEGCFRHIKKIFTQLEEFRASELLRSGLDRSKYLLVKEAKIIAMTCTHAALKRHDLVKLGFKYDNILMEEAAQILEIETFIPLLLQNPQDGFSRLKRWIMIGDHHQLPPVIKNMAFQKYSNMEQSLFTRFVRVGVPTVDLDAQGRARASLCNLYNWRYKNLGNLPHVQLLPEFSTANAGLLYDFQLINVEDFQGVGESEPNPYFYQNLGEAEYVVALFMYMCLLGYPADKISILTTYNGQKHLIRDIINRRCGNNPLIGRPNKVTTVDRFQGQQNDYILLSLVRTRAVGHLRDVRRLVVAMSRARLGLYIFARVSLFQNCFELTPAFSQLTARPLHLHIIPTEPFPTSRKNGERPPHEVQVIKNMPQMANFVYNMYMHLIQTTHHYHQTFLQLPPAMVEEGEEGQSQETEMEAEEETVSAQGNLTPSPADASLSQETPAAQPDCSSQTEDTSAPCDIATAAEPVSAAAEAATPQDAESVPTETE
B7: BCAS2 (protein, UniProt Q9D287 1-225)
chain: MAGTGLVAGEVVVDALPYFDQGYEAPGVREAAAALVEEETRRYRPTKNYLSYLTAPDYSAFETDIMRNEFERLAARQPIELLSMKRYELPAPSSGQKNDITAWQECVNNSMAQLEHQAVRIENLELMSQHGCNAWKVYNENLVHMIEHAQKELQKLRKHIQDLNWQRKNMQLTAGSKLREMESNWVSLVSKNYEIERTIVQLENEIYQIKQQHGEANKENIRQDF

Target: T1, XPA-binding protein (XAB)-2, biotin-tagged knock-in (mouse)
Assay: affinity purification with mass spectrometry

| Binder | binding |
| --- | --- |
| B1 | binds |
| B2 | binds |
| B3 | binds |
| B4 | binds |
| B5 | binds |
| B6 | binds |
| B7 | binds |
